Data published in PMC6515157.
Results are given in words; binding and its absence hold for the method and conditions named. Some entries that bind do so weakly or less than the wild type.

T1: AG73, synthetic peptide based on the laminin-α1 chain
T1 sequence (peptide): RKRLQVQLSIRT


Target: T1, AG73, synthetic peptide based on the laminin-α1 chain
Assay: ELISA; solid-phase assay: AG73 dried onto 96-well plates (100 ug/ml in H2O), blocked with 3% heat-denatured BSA, MDA-231 cell lysate (2 mg/ml) in 3% BSA overnight at 4°C; bound Sdc detected with anti-Sdc antibodies and HRP secondary, 450 nm; also with lysates of NS1, NS2 and Sdc 2 KD cells; inhibited by heparin (20 mg/ml) and by trypsin pretreatment of the cells; only the target purified

binding	Binder
binds	syndecan 4 (receptor, UniProt P31431 19-198) ESIRETEVIDPQDLLEGRYFSGALPDDEDVVGPGQESDDFELSGSGDLDDLEDSMIGPEVVHPLVPLDNHIPERAGSGSQVPTEPKKLEENEVIPKRISPVEESEDVSNKVSMSSTVQGSNIFERTEVLAALIVGGIVGILFAVFLILLLMYRMKKKDEGSYDLGKKPIYKKAPTNEFYA
binds	syndecan 1 (receptor, UniProt P18827 23-310) QIVATNLPPEDQDGSGDDSDNFSGSGAGALQDITLSQQTPSTWKDTQLLTAIPTSPEPTGLEATAASTSTLPAGEGPKEGEAVVLPEVEPGLTAREQEATPRPRETTQLPTTHLASTTTATTAQEPATSHPHRDMQPGHHETSTPAGPSQADLHTPHTEDGGPSATERAAEDGASSQLPAAEGSGEQDFTFETSGENTAVVAVEPDRRNQSPVDQGATGASQGLLDRKEVLGGVIAGGLVGLIFAVCLVGFMLYRMKKKDEGSYSLEEPKQANGGAYQKPTKQEEFYA
